Experimental data reported in PubChem BioAssay AID1688 (National Center for Advancing Translational Sciences (NCATS), 2009).
Hit rate of the full screen: of about 220,000 compounds, about 2,400 (1.1%) were called active. The inconclusive results got no clear call from the source; some entries with a clear call stand among them for comparison. Calls come from the whole dose curve; as a rule, active = well fitted inhibition curve with a large enough effect; inconclusive = small, poorly fitted or top-dose-only effect, or effect the other way; inactive = no such curve, though single readings can be large or run the other way. Potencies beside an inconclusive call are fits to weak or partial responses and may not hold up.

Test: qHTS Multiplex Assay to Identify Dual Action Probes in a Cell Model of Huntington: Aggregate Formation (GFP); note: nearly all actives have a fitted effect of over 60% in size
Details: PC12 HttQ103-GFP aggregates, Acumen cytometry, 40 h; activity change, negative = inhibition: at 46.1 µM (top of the series) unless noted
Method in brief: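 PC12 cells with ecdysone-inducible HTT exon1 Q103-GFP, induced by 100 nM tebufenozide, given compounds in a concentration series. GFP aggregates (1–25 um, 6 SD above background) counted in lysates by laser-scanning cytometry, 488 nm excitation.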
% is set by controls: 0 for no effect and ±100 for the full control effect; potency is the fitted concentration of half-maximal effect.

| SMILES | Potency | activity change, negative = inhibition |
| --- | --- | --- |
| COc1ccc(C(=O)CSc2nnc(NC(=O)C3CC(=O)N(c4cccc(OC)c4)C3)s2)cc1 (stereo unspecified) | inconclusive: 7.94 µM [inhibitor, partial curve] | – |
| Cc1nc(C(=O)NCCC(C)C)sc1C1(C)CC(c2cccc([N+](=O)[O-])c2)=NO1 (stereo unspecified) | inconclusive: 1.12 µM [activator, partial curve] | – |
| Cc1cc(C)cc(NC(=O)Oc2ccccc2N2CCCCC2)c1 | inconclusive: 0.316 µM [inhibitor, partial curve, poor fit] | – |
| COc1cccc(-c2nc(S(=O)(=O)c3ccccc3)c(N3CCOCC3)o2)c1 | inconclusive: 0.501 µM [activator, partial curve] | – |
| C/C(N)=C(/C#N)C(=O)CSc1nnc(-c2ccccc2)n1C | – | inactive: -4.72% [at 9.22 µM] |
| CCNC(=S)Nc1cc(-c2ccc(Cl)cc2)[nH]n1 | – | inactive: 18.8% [at 9.22 µM] |
| CCOc1ccccc1Cn1c(=O)sc2ccccc21 | – | inactive: 2.89% [at 9.22 µM] |
| CC1CN(C2CCN(C(=O)COc3ccc(Cl)cc3)CC2)CC(C)O1 (stereo unspecified) | – | inactive: -5.29% |
| CCN1CCCC1CNC(=O)c1cc2c(-c3cccc(OC)c3)nn(C)c2s1 (stereo unspecified) | inconclusive: 3.16 µM [inhibitor, partial curve] | – |
| COC(=O)c1sc2nc(-c3ccco3)ccc2c1N | inconclusive: 12.6 µM [activator, single point] | – |
| CCC1S/C(=N\S(=O)(=O)c2cccs2)N(C2CCCCC2)C1=O (stereo unspecified) | – | inactive: -9.95% |
| COc1ccccc1CCC(=O)Nc1nc2ccccc2[nH]1 | inconclusive: 12.6 µM [inhibitor, partial curve] | – |
| COCCCn1cnc2c(c1=O)c1nc3ccccc3nc1n2-c1ccc(C)cc1 | – | inactive: 3.09% |
| CCOCCn1c(-c2ccc(OC)cc2)nc2ccccc21 | – | inactive: -4.09% |
| COc1ccc(S(=O)(=O)Nc2ccc(F)c(F)c2)cc1Cl | inconclusive: 10 µM [inhibitor, partial curve] | – |
| Cc1nn2cc(-c3ccccc3)nc2[nH]c1=O | – | inactive: -15.3% |
| CC(=O)c1c(C)nc2sc3c(=N)n(N)cnc3c2c1-c1ccc(Cl)cc1 | inconclusive: 35.5 µM [inhibitor, single point] | – |
| CN(C)C=Nc1ccccc1C1C=NNC1=O (stereo unspecified) | – | inactive: 6.95% [at 9.22 µM] |
| Nc1nc(-c2sc3nc4c(cc3c2N)CCCC4)nc(N2CCOCC2)n1 | inconclusive: 2.51 µM [activator, full curve] | – |
| Cc1ccc(-c2nnc(Oc3cccc(C)c3)c3ccccc23)cc1 | inconclusive: 15.8 µM [inhibitor, single point] | – |
| O=C1c2cccc3c(N4CCCCC4)ccc(c23)C(=O)N1c1ccccn1 | inconclusive: 11.2 µM [inhibitor, single point] | – |
| CCCOc1ccc2[nH]cc(C(=O)O)c(=O)c2c1 | inconclusive: 39.8 µM [inhibitor, partial curve, poor fit] | – |
| CCOc1ccc(CNC(=O)C(CC)n2nc(C)n3c(cc4occc43)c2=O)cc1OC (stereo unspecified) | – | inactive: -15.6% |
| N#Cc1c(N2CCN(c3ccc(F)cc3)CC2)nc(N)c2c(N)nc3c(c12)CC(=O)N3C1CC1 | inconclusive: 0.501 µM [activator, full curve, poor fit] | – |

Complete entries as entered above:
CCNC(=S)Nc1cc(-c2ccc(Cl)cc2)[nH]n1 reads activity change, negative = inhibition: inactive: 18.8% [at 9.22 µM]
CC1CN(C2CCN(C(=O)COc3ccc(Cl)cc3)CC2)CC(C)O1 (stereo unspecified) reads activity change, negative = inhibition: inactive: -5.29%
COCCCn1cnc2c(c1=O)c1nc3ccccc3nc1n2-c1ccc(C)cc1 reads activity change, negative = inhibition: inactive: 3.09%
Nc1nc(-c2sc3nc4c(cc3c2N)CCCC4)nc(N2CCOCC2)n1 reads Potency: inconclusive: 2.51 µM [activator, full curve]

(list continues)

| SMILES | Potency | activity change, negative = inhibition |
| --- | --- | --- |
| O=C1COc2ccc(-c3csc(=Nc4ccc(OC(F)F)cc4)n3CC3CCCO3)cc2N1 (stereo unspecified) | inconclusive: 35.5 µM [inhibitor, single point] | – |
| Cc1nn(-c2ccccc2)c(Cl)c1CN(C(=O)CCl)c1cccc2ccccc12 | active: 12.6 µM | – |
| COc1ccccc1-c1nnc(SCC(=O)NCc2c(C)c(Cl)cc(C(C)C)c2O)o1 | active: 12.6 µM | – |
| CCOc1cc(C2c3c(n[nH]c3C)C(=O)N2c2ccc(C)cc2)ccc1O (stereo unspecified) | inconclusive: 12.6 µM [activator, single point] | – |
| Cn1c(=O)c2c(nc(CN3CCN(Cc4ccccc4)CC3)n2CCN2CCOCC2)n(C)c1=O | inconclusive: 2.82 µM [inhibitor, single point] | – |
| COc1cccc(C(c2sc3ncnn3c2O)N2CC(C)OC(C)C2)c1 (stereo unspecified) | inconclusive: 20 µM [activator, single point] | – |
| COC(=O)Cc1ccc2sc(-c3ccccc3)nc2c1 | – | inactive: 6.78% |
| O=C(CCNS(=O)(=O)c1ccccc1C(F)(F)F)NCc1ccc2c(c1)OCO2 | inconclusive: 3.16 µM [activator, partial curve] | – |
| COc1ccccc1CN1C[C@@H]2C[C@@H](c3ccc(C)cc3)N3CCC[C@@]23C1=O | – | inactive: 21.2% [at 9.22 µM] |
| CCSCCc1nnc(NC(=O)Nc2cccc(C(F)(F)F)c2)s1 | active: 11.2 µM | – |
| CCCN1CCN(CCCNC(=O)CCNC(=O)Cn2ccc3ccccc3c2=O)CC1 | inconclusive: 10 µM [activator, partial curve] | – |
| CCn1c(=S)sc2c(=O)[nH]c(C)nc21 | inconclusive: 31.6 µM [inhibitor, partial curve] | – |
| O=C(c1ccccc1)c1nnc(-c2ccccc2F)o1 | inconclusive: 3.16 µM [inhibitor, partial curve] | – |
| CC(C)CCn1c(N)c(S(=O)(=O)c2cccs2)c2nc3ccccc3nc21 | active: 11.2 µM | – |
| CCOc1c(/C=C(\C#N)C(N)=O)c2ccccc2n1CC | inconclusive: 25.1 µM [inhibitor, single point] | – |
| O=C(CCC1CCCCC1)NCc1ccccn1 | – | inactive: -16.3% |
| CC(=O)c1ccc(N2CCN(c3ccc(S(=O)(=O)NCCCN(C)C)cc3[N+](=O)[O-])CC2)cc1 | inconclusive: 7.94 µM [inhibitor, partial curve] | – |
| Cc1ccnc(N2CCC(C(=O)Nc3cccc(C(F)(F)F)c3)CC2)n1 | inconclusive: 35.5 µM [inhibitor, single point] | – |
| CCCc1sc(N/N=C/c2ccccn2)nc1-c1ccc(Br)cc1 | inconclusive: 3.98 µM [inhibitor, full curve] | – |
| NC(=O)C(=O)N/N=C1\CCc2ccccc21 | inconclusive: 10 µM [activator, partial curve] | – |
| Cc1csc(SCC(=O)c2cc(C)n(Cc3cccs3)c2C)n1 | inconclusive: 14.1 µM [inhibitor, partial curve] | – |
| CCCCNc1nc2c(c(=O)n(C)c(=O)n2C)n1Cc1cccc(OC)c1 | active: 7.08 µM | – |
| Cc1cc(Br)c(Cl)cc1NC(=O)CN1C(=O)C2C3CC(c4ccccc4)C(C3)C2C1=O (stereo unspecified) | inconclusive: 35.5 µM [inhibitor, single point] | – |
| CC(NC(=O)COc1ccc(Br)cc1)C(=O)O (stereo unspecified) | – | inactive: 4.1% |

2 entries picked at random from the list so far:

| SMILES | Potency | activity change, negative = inhibition |
| --- | --- | --- |
| Cn1c(=O)c2c(nc(CN3CCN(Cc4ccccc4)CC3)n2CCN2CCOCC2)n(C)c1=O | inconclusive: 2.82 µM [inhibitor, single point] | – |
| COc1ccccc1CN1C[C@@H]2C[C@@H](c3ccc(C)cc3)N3CCC[C@@]23C1=O | – | inactive: 21.2% [at 9.22 µM] |

Later entries

| SMILES | Potency | activity change, negative = inhibition |
| --- | --- | --- |
| Cc1oc(-c2ccc(Cl)cc2)nc1CN1CCCC(C(=O)N2CCN(C(=O)c3ccco3)CC2)C1 (stereo unspecified) | inconclusive: 8.91 µM [inhibitor, partial curve] | – |
| Cc1c(CCC(=O)O)c(=O)oc2cc3occ(-c4ccccc4)c3cc12 | – | inactive: -3.15% [at 9.22 µM] |
| Cc1cc(Nc2nnnn2-c2ccccc2)n(-c2ccc(Cl)cc2)n1 | active: 15.8 µM | – |
| c1cncc(CNc2ncnc3sccc23)c1 | inconclusive: 17.8 µM [inhibitor, single point] | – |
| O=C(Nc1ccc(F)cc1)C(c1ccccc1)N1CCN(C(=O)c2ccco2)CC1 (stereo unspecified) | – | inactive: 10% |
| COc1ccc(Oc2cnn(-c3ccccc3)c(=O)c2Br)cc1 | – | inactive: 2.45% |
| CN(O)/C=C/C(=O)c1ccc(Br)cc1 | – | inactive: 12.8% |
| CC(C)(C)n1nnnc1C(c1ccc(Cl)cc1)N(Cc1cccnc1)Cc1ccco1 (stereo unspecified) | inconclusive: 31.6 µM [inhibitor, single point] | – |
| O=C(NCc1ccco1)c1cc(-c2ccc3c(c2)OCO3)on1 | inconclusive: 35.5 µM [activator, single point] | – |
| Cc1cccc(/C=N/c2sc3c(c2C#N)CCN(Cc2ccccc2)C3)c1O | inconclusive: 31.6 µM [activator, partial curve] | – |
| O=C(N/N=C/c1[nH]c2ccccc2c1Cl)c1cccc(Br)c1 | – | inactive: -13.1% [at 9.22 µM] |
| CC(=O)c1nc2ccccc2n1S(=O)(=O)c1ccc(Cl)cc1 | inconclusive: 3.16 µM [inhibitor, single point] | – |
| O=C(Nc1ccc(N2CCCC2)c(Cl)c1)c1ccco1 | – | inactive: -11% |
| CC[C@H](C)[C@H](NC(N)=O)C(=O)NCCc1ccc(Cl)cc1 | inconclusive: 0.355 µM [activator, partial curve, poor fit] | – |
| Cc1ccc(Nc2ccc(C(=O)N3CCCC3)cn2)c(C)c1 | – | inactive: -30.7% |
| O=C1c2ccccc2C(=O)N1CCc1nc(-c2cccnc2)no1 | inconclusive: 35.5 µM [inhibitor, partial curve, poor fit] | – |
| CN(C)c1nc(N)nc(CSc2nc3cc(Cl)ccc3o2)n1 | inconclusive: 15.8 µM [inhibitor, partial curve] | – |
| CCCCCCCCCn1c2c(c(=N)c3c1CCC3)CCCC2 | – | inactive: -32.8% [at 9.22 µM] |
| COc1ccc(C(=O)c2c[nH]c(C(=O)N=CN(C)C)c2)cc1 | inconclusive: 25.1 µM [inhibitor, single point] | – |
| CCOc1cc(S(=O)(=O)NC2CCCCC2)ccc1F | inconclusive: 8.91 µM [inhibitor, partial curve] | – |
| CCCC(C)C(=O)Nc1nc(C)c(-c2csc(Nc3ccccc3OC)n2)s1 (stereo unspecified) | inconclusive: 15.8 µM [inhibitor, single point] | – |
| CCn1c(=O)cc(SCC(=O)N2CCN(Cc3ccc4c(c3)OCO4)CC2)c2ccccc21 | inconclusive: 0.794 µM [activator, full curve, poor fit] | – |
| c1ccc(-c2ncnc3cc4n(c23)CCC4)cc1 | inconclusive: 35.5 µM [inhibitor, single point] | – |
